Data taken from ChEMBL document CHEMBL3988442, “University of Dundee, Small-Polar-MMV Screening Library” (2021).

By UniProt entry, the sequences of proteins in these tests, tags left out.
UniProt E9BF75, entry or part of it: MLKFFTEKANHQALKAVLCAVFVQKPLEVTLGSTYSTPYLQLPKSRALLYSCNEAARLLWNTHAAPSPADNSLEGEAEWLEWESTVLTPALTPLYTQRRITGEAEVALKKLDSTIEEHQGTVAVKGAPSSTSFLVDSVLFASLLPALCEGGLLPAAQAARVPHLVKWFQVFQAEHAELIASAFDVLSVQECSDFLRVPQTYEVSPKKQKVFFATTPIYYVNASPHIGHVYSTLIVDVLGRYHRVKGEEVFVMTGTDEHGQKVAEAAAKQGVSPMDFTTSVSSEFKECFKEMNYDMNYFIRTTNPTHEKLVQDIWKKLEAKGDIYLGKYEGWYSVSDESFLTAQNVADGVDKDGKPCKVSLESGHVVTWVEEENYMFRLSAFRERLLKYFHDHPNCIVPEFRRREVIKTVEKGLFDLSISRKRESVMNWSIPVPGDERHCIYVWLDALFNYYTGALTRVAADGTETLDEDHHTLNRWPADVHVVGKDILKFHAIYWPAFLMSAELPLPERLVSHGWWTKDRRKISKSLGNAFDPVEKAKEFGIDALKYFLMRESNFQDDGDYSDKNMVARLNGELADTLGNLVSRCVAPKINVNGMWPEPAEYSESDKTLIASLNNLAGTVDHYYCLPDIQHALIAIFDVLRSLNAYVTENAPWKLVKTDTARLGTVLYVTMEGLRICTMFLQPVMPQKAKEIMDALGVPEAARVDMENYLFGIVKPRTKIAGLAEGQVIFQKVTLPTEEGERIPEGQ

All values are in %.
How 0% and 100% were set is not recorded. Most values in the screen are low, and negative values occur.
Compounds were drawn at random from those tested, without regard to their results.
A dash means the value is not listed here; it may have been measured.

A: 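Assay on Mycobacterium tuberculosis, filed only as a heat shock assay from Cornell; the read-out is not stated. The concentration is filed as 10 mM, unlikely as a test dose, so the dose is not known. The record gives no direction; compounds that gave an IC50 in retests scored well above the rest, so higher reads as stronger inhibition. About 69,000 compounds were tested under these conditions; 1.4% (about 930) showed 50% or more at least once.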
B: 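Whole-cell assay for inhibitors of Mycobacterium tuberculosis growth, labelled Cornell in the record; the read-out is not stated. The concentration is filed as 10 mM, unlikely as a test dose, so the dose is not known. Higher means stronger inhibition (inferred from two other growth screens of the library). Size under these conditions: about 53,000 compounds, about 900 of them at 50% or above in at least one test.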
C: 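Primary screen of methionyl-tRNA synthetase; the read-out is not stated. Target: Methionyl-tRNA synthetase (putative), Leishmania donovani (UniProt E9BF75). The test concentration is not given. Values are per cent inhibition. Size under these conditions: about 68,000 compounds, about 24 of them at 50% or above in at least one test.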

| # | SMILES | A | B | C |
|---|---|---|---|---|
| 1 | `Cc1ccsc1CN1CCC2(CC1)CC(OCc1cccnc1)CO2.O=C(O)C(F)(F)F.O=C(O)C(F)(F)F` (centres undefined) | -18.26 | 22.43 | - |
| 2 | `O=C1CCC2(CCCN(C(=O)NCc3ccccc3)CC2)N1` (centres undefined) | 12.39 | 30.29 | 21.29 |
| 3 | `CC(=O)N1CCN(CCCOc2ccccc2F)CC(C(N)=O)C1` (centres undefined) | -7.953 | 3.554 | 9.032 |
| 4 | `COC1COC2(CCN(c3ccc(C#N)cc3)CC2)C1` (centres undefined) | - | - | 6.667 |
| 5 | `CCc1nnc(CN(CC)C(=O)C(C)n2ccnc2C(C)C)o1` (centres undefined) | 13.71 | - | 8.094 |
| 6 | `N#Cc1ccc(S(=O)(=O)Nc2ccc(N3CCOCC3)cn2)cc1` | -0.13 | -25.6 | 13.65 |
| 7 | `CC(C)C(C)N(C)C(=O)COc1ccccc1C#N` (centres undefined) | 18.99 | -12.26 | 8.108 |
| 8 | `N#Cc1cc(C#N)c(SCCC(=O)Nc2ccc(F)cc2)nc1N` | 9.084 | - | - |
| 9 | `O=C(N[C@H]1CC[C@H](O)CC1)c1ccc2nc(-c3ccccc3)cn2c1` | -4.584 | - | 6.832 |
| 10 | `COCc1nc(C(=O)N(Cc2ccccc2)CC(C)C(=O)O)cs1` (centres undefined) | 29.21 | 29.42 | 8.179 |
| 11 | `Cc1cc(Br)oc1C(=O)N1CCC(N(C)C)CC1` | -24.32 | -15.78 | 3.679 |
| 12 | `Cc1nc(SC2CCN(c3sccc3C#N)C2=O)oc1C` (centres undefined) | -22.05 | 24.78 | 17.76 |
| 13 | `CN(C)c1cc(C(=O)N2CCCN(Cc3nccn3C)CC2)ccn1` | -33.48 | -16.91 | -0.2793 |
| 14 | `COC(=O)c1cc(OC)c(OC)cc1NCc1c(C)noc1C` | -12.7 | 29.44 | 4.393 |
| 15 | `Cc1ccc(OCCN2CCCC(c3cc(C(N)=O)[nH]n3)C2)cc1` (centres undefined) | -13.73 | 13.73 | 11.85 |
| 16 | `CC(=O)N1CC[C@H]2[C@H](C[C@@H](CN3CCCC3)N2c2nccs2)C1` | - | - | 9.89 |
| 17 | `CCc1nc(CCNC(=O)NC2CCC(=O)N(C)C2)sc1C` (centres undefined) | 8.13 | - | - |
| 18 | `c1ccc(-c2nc(CN3CCn4c(nnc4C4CC4)C3)no2)cc1` | -31.51 | 22.35 | 13.98 |
| 19 | `CC(C)Cn1c(=O)n(CCCn2cccn2)c2cc(C(=O)O)cnc21` | 16.37 | 5.281 | 16.32 |
| 20 | `NC(=O)NC(=O)CCSCc1coc(-c2cccc(Cl)c2)n1` | 4.656 | 17.36 | 12.15 |
| 21 | `CCC(O)CN1CCN(C(=O)CCc2c(C)noc2Cl)CC1` (centres undefined) | -15.59 | -7.411 | 17.14 |
| 22 | `O=S(=O)(C1CC1)N1Cc2nccn2CC(Cn2cncn2)C1` (centres undefined) | 7.427 | 16.53 | 3.825 |
| 23 | `Cc1nc(CO[C@H]2CN(C(=O)c3ccc[nH]3)[C@@H]3COC[C@H]23)cs1` | - | - | 13.45 |
| 24 | `CO[C@@H]1CCN(Cc2cccs2)[C@H]1Cc1ccncc1` | -1.995 | 28.28 | 23.17 |
| 25 | `[H][C@@]12CNC(=O)N1CCN(C(=O)c1ccc3c(c1)OCO3)C2` | -4.446 | - | - |
| 26 | `[H][C@]12CCN(S(=O)(=O)Cc3ccccc3)[C@@]1([H])CC[C@H](COCC)O2` | 2.031 | -47.77 | - |
| 27 | `Cc1ccc(-c2nnc(CN3CCOC(Cn4cncn4)C3)o2)cc1` (centres undefined) | -11.45 | - | 20.56 |
| 28 | `Cl.FC(F)(F)c1ccc(-c2cnc(C3CCCN3)cn2)cc1` (centres undefined) | -8.787 | -1.362 | - |
| 29 | `CCCc1noc(CN(C)C(=O)C2COc3ccccc3C2)n1` (centres undefined) | -30.92 | 8.524 | 10.24 |
| 30 | `O=C(NCc1cccs1)NCC(O)(c1cccs1)C1CC1` (centres undefined) | 24.61 | 0.621 | 3.597 |
| 31 | `Cc1ccc(-c2nc(CCNC(=O)NCC(C)(C)C(N)=O)co2)cc1` | -14.36 | -1.516 | 24.57 |
| 32 | `[H][C@@]12C=C[C@@]([H])(C1)[C@H](C(=O)N1CCN(c3cc(C)nc(CC)n3)CC1)C2` | -1.962 | 14.85 | - |
| 33 | `Cc1ccc(C(=O)N2C[C@H]3CCCC(OCc4cccnc4)[C@H]3C2)cn1` (some centres undefined) | - | - | 2.963 |
| 34 | `Cc1cccc(CN2CCc3nnc(Cn4cccc4)n3CC2)n1.O=C(O)C(F)(F)F` | -14.44 | -3.548 | - |
| 35 | `O=C(CN1CCC(c2cccc(F)c2)C1)NCc1ccco1` (centres undefined) | -4.613 | - | 9.184 |
| 36 | `CCc1cccc(N2CCC(NC(=O)c3ccc(=O)[nH]n3)CC2)c1` | -0.2814 | - | 15.28 |
| 37 | `O=C(O)C(F)(F)F.[H][C@@]12CCN(CC(=O)N(C)C)C(=O)[C@@]1([H])CN(C1CCOCC1)C2` | 1.993 | - | - |
| 38 | `CCn1ncc(CN2CCc3nc(-c4cccnc4)nc(O)c3C2)c1C` | -9.522 | -17.58 | 2.604 |
| 39 | `O=C(NCc1ccc(N2CCSCC2)cc1)NCc1cc[nH]n1` | -10.11 | -26.94 | 14.29 |
| 40 | `CN(C)C(=O)Cc1nc(CN2CCCC2Cn2cncn2)cs1` (centres undefined) | 2.714 | 5.943 | 13.54 |
| 41 | `CCc1ccccc1OC1CN(C(=O)c2sccc2N)C1` | 10.43 | - | 17.91 |
| 42 | `CC(NCCn1cccn1)c1ccc(F)cc1F` (centres undefined) | -6.996 | 13.31 | -2.799 |
| 43 | `NC(=O)N1CCCC1COC(=O)c1ccc(F)cc1Br` (centres undefined) | -8.179 | 3.034 | 11.45 |
| 44 | `c1cc(CNCc2ccc3c(c2)CCO3)cc(N2CCOCC2)n1` | - | - | 10.78 |
| 45 | `CN1CCCN(c2nc3c(cnn3C(C)(C)C)c(=O)[nH]2)CC1` | -1.875 | 7.279 | 1.985 |

The first 5 entries again:

{"smiles": "Cc1ccsc1CN1CCC2(CC1)CC(OCc1cccnc1)CO2.O=C(O)C(F)(F)F.O=C(O)C(F)(F)F", "stereo": "centres undefined", "A": -18.26, "B": 22.43}
{"smiles": "O=C1CCC2(CCCN(C(=O)NCc3ccccc3)CC2)N1", "stereo": "centres undefined", "A": 12.39, "B": 30.29, "C": 21.29}
{"smiles": "CC(=O)N1CCN(CCCOc2ccccc2F)CC(C(N)=O)C1", "stereo": "centres undefined", "A": -7.953, "B": 3.554, "C": 9.032}
{"smiles": "COC1COC2(CCN(c3ccc(C#N)cc3)CC2)C1", "stereo": "centres undefined", "C": 6.667}
{"smiles": "CCc1nnc(CN(CC)C(=O)C(C)n2ccnc2C(C)C)o1", "stereo": "centres undefined", "A": 13.71, "C": 8.094}